Experiment: peptide made by a vendor (Fmoc solid-phase peptide synthesis; C-terminal side-chain protected amino acid-resin; HATU/DIEA)
Settings: whole synthesis

Substance	purity (crude or final not stated) [%]
Ac-c[Cys^1-Pro^2-Pro^3-Tyr^4-Leu^5-Pro^6-c(Lys^7-Tyr^8-Leu^9-Cys^10]-Asp^11)-Leu^12-Ile^13-NH2 (CPPYLPKYLCDLI; N-acetyl, C-amide, bicyclic disulfide and Lys-Asp lactam; MOD_RES 1 …ON; DISULFID 1..10 disulfide bond; CROSSLNK 7..11 Cyclization by amide linkage; MOD_RES 13 AMIDATION)	100.0
c(Mpa-Pro-Pro-Tyr-Leu-Pro-c[Lys-Tyr-Leu-Cys)-Asp]-Leu-Ile-NH2	95.9

Reference: patent US20250186540A1 (ICHIMARU PHARCOS CO., LTD., priority 2022, published 2025)
